According to US20180086836A1:
Where a chain is given by its changes, count along the chain named. No constants are given. Whether binding was seen depends on the method and setting. Some binding calls cover weakened binding; strength is not graded here. Blank lines part the entries; values can stand above or below the binder they belong to.

How the values were obtained:
[1] = target: T1, human CCR6 (human) (UniProt P51684); assay: flow cytometry on human PBMCs, 10 µg/mL
T1 sequence: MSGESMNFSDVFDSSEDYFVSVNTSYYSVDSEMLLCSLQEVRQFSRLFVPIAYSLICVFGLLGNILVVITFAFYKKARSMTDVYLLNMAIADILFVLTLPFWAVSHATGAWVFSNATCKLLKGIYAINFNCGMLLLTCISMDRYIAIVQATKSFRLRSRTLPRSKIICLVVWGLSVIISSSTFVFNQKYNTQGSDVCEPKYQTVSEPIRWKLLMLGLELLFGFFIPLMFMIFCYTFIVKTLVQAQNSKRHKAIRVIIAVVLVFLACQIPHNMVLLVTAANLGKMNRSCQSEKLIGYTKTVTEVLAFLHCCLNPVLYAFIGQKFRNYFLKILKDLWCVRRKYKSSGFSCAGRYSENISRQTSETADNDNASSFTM

[2] = target: T1, human CCR6 (human); assay: flow cytometry on human PBMCs, 10 µg/mL, anti-human IgG-PE
[3] = target: T1, human CCR6 (human); assay: cell ELISA on CHO cells transfected with human CCR6, anti-human Ig Fc-HRP
[4] = target: T1, human CCR6 (human); assay: flow cytometry on transfected cells (Human Nter, Human loops 1-3), 10 µg/ml, PE-labelled secondary antibody
[5] = target: T1, human CCR6 (human); assay: Cell ELISA on CHO cells expressing human CCR6
[6] = target: T1, human CCR6 (human); assay: flow cytometry on BAF cells transfected with human CCR6, 3 to 0.01 µg/ml

- binding [1]: binds
- binding [2]: binds
- binding [3]: binds
- binding [4]: binds
B1: chimeric 4H11 antibody (antibody, human IgG1, kappa, V domains shown)
VH: EVKLVESGGGLVQPGGSLKLSCATSGFSFSDYYMYWIRQTPEKRLEWVAYITNGGITYYPDTVKGRFTISRDNAKNTLYLQMSRLRSEDTAMYYCTSPLRGAWFAYWGQGTLVTVSS
VL: DVIMTQSPLSLPVSLGDQASISCRSSQSIVHSNGNTYLEWYLQKPGQSPKLLIYKVSNRFSGVPDRFSGSGSGTDFTLKISRVEAEDLGLYYCFQGSHVPLTFGAGTKLEIKR

- binding [5]: binds
- binding [3]: binds
B2: VH1/VL1 antibody (antibody, human IgG1, kappa, V domains shown)
VH: EVQLVESGGGLVQPGGSLRLSCATSGFSFSDYYMYWVRQAPGKGLEWVAYITNGGITYYPDTVKGRFTISRDNSKNTLYLQMNSLRAEDTAVYYCTSPLRGAWFAYWGQGTLVTVSS
VL: B1 VL with I3V, S14T, D17Q, Q18P, L42Q, K44R, K50R, L88V, L90V, A105Q

- binding [5]: binds
- binding [6]: binds
- binding [3]: binds
B3: 4H11 VH5/VL1 IgG1 antibody (antibody, V domains shown)
VH: B2 VH with T24A, A49S, T62S
VL: B1 VL with I3V, S14T, D17Q, Q18P, L42Q, K44R, K50R, L88V, L90V, A105Q

- binding [3]: binds
B4: H2/L2 humanized anti human CCR6 antibody (antibody, human IgG1, kappa, V domains shown)
VH: B2 VH with T24A
VL: DVVMTQSPLSLPVTLGQPASISCRSSQSIVHSNGNTYLEWFQQRPGQSPRLLIYKVSNRFSGVPDRFSGSGSGTDFTLKISRVEAEDVGVYYCFQGSHVPLTFGQGTKLEIKR
